Assay results: publication PMC7819943, “Rice protein-binding microarrays: a tool to detect cis-acting elements near promoter regions in rice”
The other results are listed elsewhere or left out.

Chains of the proteins cited; added tags and fusions are not shown.
UniProt Q0JBA9, entry or part of it: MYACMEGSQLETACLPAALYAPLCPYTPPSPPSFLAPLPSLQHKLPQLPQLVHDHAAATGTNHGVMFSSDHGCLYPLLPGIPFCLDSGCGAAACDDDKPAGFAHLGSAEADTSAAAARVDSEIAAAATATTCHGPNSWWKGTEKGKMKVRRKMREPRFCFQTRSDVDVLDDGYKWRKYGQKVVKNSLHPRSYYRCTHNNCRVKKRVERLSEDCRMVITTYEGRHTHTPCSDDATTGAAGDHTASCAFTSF

target: OsWRKY34 (Oryza sativa, UniProt Q0JBA9 1-250); experiment: protein-binding microarray (RPBM); PBS, 2% BSA, 51.3 ng/ul salmon testes DNA, 50 uM zinc acetate, 200 nM TF, 25 C, 1 h; high values mean tight binding; conditions: protein: recombinant; tags: N-terminal polyhistidine and DsRed monomer fusion (pET32a); label: CyDye5-dUTP incorporated in the synthesized complementary strand; 3' TTTTT single-stranded linker to array surface; dsDNA, one strand shown
Procedure, shortened: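 Binding signal is reported as fluorescence intensity per feature (arbitrary units) from an Axon 4000B scanner. Incubation used 200 nM of each Ni–NTA-purified, N-terminally polyhistidine- and DsRed-fused transcription factor from E. coli BL21-CodonPlus on a double-stranded custom Agilent array for 1 h at 25 °C, with 50 µM zinc acetate in the buffer, followed by washing.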

Row | Sequence | binding signal
1 | GGTCCCAGCTTTTGTCATTTGTATGTGTTTGTTCAACTGGCGGAGTCACCTAGTGCAG | 13400 fluorescence intensity (a.u.)
2 | CACACATATACTTGCTTGTATAGAAAATGTTCCTTTCGTTCGGAGTCACCTAGTGCAG | 8040 fluorescence intensity (a.u.)
3 | CTTGGTTTTCTTGATTTCTTGGGTTCTTGGCTACTGGGGCCGGAGTCACCTAGTGCAG | 9490 fluorescence intensity (a.u.)
4 | GTCGCCTGCAGTTCTGACCGCCAAAACACCCACTGCCTACCGGAGTCACCTAGTGCAG | 8300 fluorescence intensity (a.u.)
5 | CTGACTTCAATTTTTCGTTGCCTTGGTTTTCTAGTTGTATCGGAGTCACCTAGTGCAG | 13200 fluorescence intensity (a.u.)
6 | AAAAACGTCTCAATTGTAAGCTCACTATCTAACAATTTTCCGGAGTCACCTAGTGCAG | 11200 fluorescence intensity (a.u.)
7 | CGACGGCGGCGGCTCCCTACCTCTTCCCGTCTCCTTCTTCCGGAGTCACCTAGTGCAG | 8720 fluorescence intensity (a.u.)
8 | TAACGCATCATTTCCCGGCGCGCCATCCTCCGCTTCGAAGCGGAGTCACCTAGTGCAG | 11900 fluorescence intensity (a.u.)
9 | TTTTTTTTTCAGACCTTGTACAAACGCATACACATATAAACGGAGTCACCTAGTGCAG | 8180 fluorescence intensity (a.u.)
10 | GACCACACACTTGTTGGCGCCCGCGTGGATCTCTCCATCTCGGAGTCACCTAGTGCAG | 8210 fluorescence intensity (a.u.)
11 | ACCCCGTGACTAGAAATCTTCCAGCATCAGAATATGTAATCGGAGTCACCTAGTGCAG | 9320 fluorescence intensity (a.u.)
12 | TCTTGTCCCTGGTGTGTGGGTAGTTGCTGTTTCAGAGATGCGGAGTCACCTAGTGCAG | 12500 fluorescence intensity (a.u.)
13 | CCCAACTCTACTCTCTCTATTTTCACGCACACGCTTCCTACGGAGTCACCTAGTGCAG | 9150 fluorescence intensity (a.u.)
14 | CATGGCGTATTGGATGGCCGCCTCGCGTTTTGTGTCGTTCCGGAGTCACCTAGTGCAG | 10600 fluorescence intensity (a.u.)
15 | GAGGGGTTTCATTGTTATTTTTGGGTAATCCAAATTTACACGGAGTCACCTAGTGCAG | 16300 fluorescence intensity (a.u.)
16 | ATCCTACACTCAGCTGCACCCCTCCAGTAGAGCGAGCAATCGGAGTCACCTAGTGCAG | 8230 fluorescence intensity (a.u.)
17 | GCCATCCATCGATCCATTATTATATGGCCTGGGCGCGCGCCGGAGTCACCTAGTGCAG | 9140 fluorescence intensity (a.u.)
18 | TTCCTTTGCCTTCATATGCGTGAAATGTAGTAAGCAGTATCGGAGTCACCTAGTGCAG | 8180 fluorescence intensity (a.u.)
19 | CCGCGAACCCTCTCACCTGACGCAACCCCGAATCTTGCCTCGGAGTCACCTAGTGCAG | 8880 fluorescence intensity (a.u.)
20 | AAAGTCACTAATGTGGAGGGAGACGGTACCAATATCGTTTCGGAGTCACCTAGTGCAG | 14900 fluorescence intensity (a.u.)
21 | GACAAACTGCAGCATATACACACACGTACGCACCCGCATCCGGAGTCACCTAGTGCAG | 9370 fluorescence intensity (a.u.)
22 | GGAGGGAGAAGGTGCGGGGAGGGAGAAGTCTCGGCGCTGGCGGAGTCACCTAGTGCAG | 9060 fluorescence intensity (a.u.)
23 | ATTCACATGCTTCAACCTGTGCGACGCCCATGACGGCCAACGGAGTCACCTAGTGCAG | 10500 fluorescence intensity (a.u.)
24 | CCATCGATTACAATAATTTTTTTCCATACCTTACCCATCTCGGAGTCACCTAGTGCAG | 8340 fluorescence intensity (a.u.)
25 | GTCTGGTATCTGGTTTCAGGGGCGGAGCTATGTATTAGGGCGGAGTCACCTAGTGCAG | 10100 fluorescence intensity (a.u.)
26 | TGTTTGCTGCTGCTGCTGCTCTGCTTTTCTCTTTTTTCTTCGGAGTCACCTAGTGCAG | 9490 fluorescence intensity (a.u.)
27 | TTTATTTTCCAGTTCTTGTATAAGACTCTGTTATTGTTCTCGGAGTCACCTAGTGCAG | 10000 fluorescence intensity (a.u.)

Retrieved one by one from the entries so far, 3 records:
Row | Sequence | binding signal
6 | AAAAACGTCTCAATTGTAAGCTCACTATCTAACAATTTTCCGGAGTCACCTAGTGCAG | 11200 fluorescence intensity (a.u.)
2 | CACACATATACTTGCTTGTATAGAAAATGTTCCTTTCGTTCGGAGTCACCTAGTGCAG | 8040 fluorescence intensity (a.u.)
21 | GACAAACTGCAGCATATACACACACGTACGCACCCGCATCCGGAGTCACCTAGTGCAG | 9370 fluorescence intensity (a.u.)

(next part)

Row | Sequence | binding signal
28 | TTGTATGGTCCTTGATATCTGCAGTTGGAATATTTTGTTTCGGAGTCACCTAGTGCAG | 9660 fluorescence intensity (a.u.)
29 | CACCTTGATCTGTGTCTCAGCTCTCCTATCTTCTTTGCTCCGGAGTCACCTAGTGCAG | 8850 fluorescence intensity (a.u.)
30 | AATCCTGAATGCTGCATACCATCATGTCTCGTTCACGCTGCGGAGTCACCTAGTGCAG | 12300 fluorescence intensity (a.u.)
31 | CTCATCTCCCATCCATGGCTGCTCTCTACCTCGTTTCCATCGGAGTCACCTAGTGCAG | 8350 fluorescence intensity (a.u.)
32 | CCGCCCTTTTGACCCAACCCCACCGACCCAACGAACGCGACGGAGTCACCTAGTGCAG | 9800 fluorescence intensity (a.u.)
33 | ACTCACTAGTGATCAGTACTGCTATGTTGCTTTCAATAAACGGAGTCACCTAGTGCAG | 9530 fluorescence intensity (a.u.)
34 | GCAGCTCCCTCCACCGCGCCACCCATCCATCGCCAGCCATCGGAGTCACCTAGTGCAG | 8170 fluorescence intensity (a.u.)
35 | TTGTCACTGCCTGTACGGGGCCCTTGTTTTTTGGTTATAACGGAGTCACCTAGTGCAG | 8520 fluorescence intensity (a.u.)
36 | ATTATTATTTATTTTGTTTATCATTTGCTTTATTATCAAACGGAGTCACCTAGTGCAG | 8140 fluorescence intensity (a.u.)
37 | AACAGCGACGGCCATTACCTTACCCGGTTCAATTCAACGCCGGAGTCACCTAGTGCAG | 9660 fluorescence intensity (a.u.)
38 | TCTCCGCCTAAACATAGCTATCTCCACTCCTACTTCCCGGCGGAGTCACCTAGTGCAG | 10300 fluorescence intensity (a.u.)
39 | TGATTTGTGTTACCATGACGTCTGTCTATTTCCTAGTCATCGGAGTCACCTAGTGCAG | 10900 fluorescence intensity (a.u.)
40 | GATTTCTCCTAGGTCTCGGATTTCATCTTGTATACACTACCGGAGTCACCTAGTGCAG | 10200 fluorescence intensity (a.u.)
41 | CGCTGCAGCGGTGTGCCTTACATTTCTTGCTATCATTTTTCGGAGTCACCTAGTGCAG | 13500 fluorescence intensity (a.u.)
42 | GCTATTCTACAGTTTTCTTATCTATGCAGTTCTTTAAGAACGGAGTCACCTAGTGCAG | 8250 fluorescence intensity (a.u.)
43 | AGCTATATTACTCACCTTCTCTCTTTAAGCCTGTCTAGTACGGAGTCACCTAGTGCAG | 10300 fluorescence intensity (a.u.)
44 | TCCCCAGCCGCCGCCGGAACCCGAGACCACCCTTGACGGCCGGAGTCACCTAGTGCAG | 8060 fluorescence intensity (a.u.)
45 | ACCTGCGTAGTACCCTAAGGTCCTGAGTTCAAATCTCCTACGGAGTCACCTAGTGCAG | 8110 fluorescence intensity (a.u.)
46 | ACCGCCTTTTGTTTTTCTCTCTCGTTTCGTGTGCGCCGCGCGGAGTCACCTAGTGCAG | 10100 fluorescence intensity (a.u.)
47 | TCCATCCATATCGTCTACTCCTTGCTCCATGCCTCCATCACGGAGTCACCTAGTGCAG | 8710 fluorescence intensity (a.u.)
48 | GTGTCCATGTGGTTATATGATGATTAATTTGAGAAATTTCCGGAGTCACCTAGTGCAG | 9800 fluorescence intensity (a.u.)
49 | TGTTTTCTCTCTCTGCTACTTGCTAGTGGGACGGGGATCGCGGAGTCACCTAGTGCAG | 8050 fluorescence intensity (a.u.)
50 | ACTTATTCACCAACACTGTCTTCTCAACCAATCACAACCCCGGAGTCACCTAGTGCAG | 8610 fluorescence intensity (a.u.)
51 | TACCACCAACACACCACTCGTCTCATTTCTGGCCTATATACGGAGTCACCTAGTGCAG | 15600 fluorescence intensity (a.u.)
52 | ATGTCTCTCGCAGTCGCTGTCAGTCTGTCTTGTGTCCGCACGGAGTCACCTAGTGCAG | 13700 fluorescence intensity (a.u.)
53 | TTTTTTTTAATTACACGGCAAATGCACACATATATACACCCGGAGTCACCTAGTGCAG | 8320 fluorescence intensity (a.u.)
54 | TCTTCTCCCTTTCTCTCTCTCTCTCTCACTTTTCTCAGCCCGGAGTCACCTAGTGCAG | 8410 fluorescence intensity (a.u.)

Shown tab-delimited: entries from further up.
Row	Sequence	binding signal
30	AATCCTGAATGCTGCATACCATCATGTCTCGTTCACGCTGCGGAGTCACCTAGTGCAG	12300 fluorescence intensity (a.u.)
31	CTCATCTCCCATCCATGGCTGCTCTCTACCTCGTTTCCATCGGAGTCACCTAGTGCAG	8350 fluorescence intensity (a.u.)
